These are yes or no findings as the source states them, for the method shown. In cells and extracts the contact can be indirect. For part of these data: Binding calls can cover weak binding; strength is not graded here. Tags and fused reporters may be left off the sequences shown.
What was measured:
Experiment in all cases: co-IP; HEK293T cells transfected with the indicated plasmids, 48 h; lysis in 20 mM Tris pH 7.4, 1.0% Triton X-100, 0.1% SDS, 150 mM NaCl, 10% glycerol; 1 μg antibody overnight at 4 °C, protein A-Sepharose; immunoblot; input 5%
[1] = biological target: Shank3b (pEGFP-C1-mShank3 variant) (mouse)
[2] = biological target: Shank3c (pEGFP-C1-mShank3 variant) (mouse)
[3] = biological target: Shank3e (pEGFP-C1-mShank3 variant) (mouse)

B1: HA-tagged human Slitrk2 wild type (pDisplay-HA-hSlitrk2) (protein, UniProt Q9H156 22-845)
chain: RKTAKDICKIRCLCEEKENVLNINCENKGFTTVSLLQPPQYRIYQLFLNGNLLTRLYPNEFVNYSNAVTLHLGNNGLQEIRTGAFSGLKTLKRLHLNNNKLEILREDTFLGLESLEYLQADYNYISAIEAGAFSKLNKLKVLILNDNLLLSLPSNVFRFVLLTHLDLRGNRLKVMPFAGVLEHIGGIMEIQLEENPWNCTCDLLPLKAWLDTITVFVGEIVCETPFRLHGKDVTQLTRQDLCPRKSASDSSQRGSHADTHVQRLSPTMNPALNPTRAPKASRPPKMRNRPTPRVTVSKDRQSFGPIMVYQTKSPVPLTCPSSCVCTSQSSDNGLNVNCQERKFTNISDLQPKPTSPKKLYLTGNYLQTVYKNDLLEYSSLDLLHLGNNRIAVIQEGAFTNLTSLRRLYLNGNYLEVLYPSMFDGLQSLQYLYLEYNVIKEIKPLTFDALINLQLLFLNNNLLRSLPDNIFGGTALTRLNLRNNHFSHLPVKGVLDQLPAFIQIDLQENPWDCTCDIMGLKDWTEHANSPVIINEVTCESPAKHAGEILKFLGREAICPDSPNLSDGTVLSMNHNTDTPRSLSVSPSSYPELHTEVPLSVLILGLLVVFILSVCFGAGLFVFVLKRRKGVPSVPRNTNNLDVSSFQLQYGSYNTETHDKTDGHVYNYIPPPVGQMCQNPIYMQKEGDPVAYYRNLQEFSYSNLEEKKEEPATPAYTISATELLEKQATPREPELLYQNIAERVKELPSAGLVHYNFCTLPKRQFAPSYESRRQNQDRINKTVLYGTPRKCFVGQSKPNHPLLQAKPQSEPDYLEVLEKQTAISQL
- binding [1]: binds
- binding [2]: binds
- binding [3]: no binding

— publication PMC6863843
